{
  "source": "paper PMC11958753",
  "key": {"[1]": {"molecular_target": "T1, activating transcription factor 4 (ATF4) (rat (endogenous in primary cortical neurons)) (UniProt Q9ES19)", "T1 sequence": "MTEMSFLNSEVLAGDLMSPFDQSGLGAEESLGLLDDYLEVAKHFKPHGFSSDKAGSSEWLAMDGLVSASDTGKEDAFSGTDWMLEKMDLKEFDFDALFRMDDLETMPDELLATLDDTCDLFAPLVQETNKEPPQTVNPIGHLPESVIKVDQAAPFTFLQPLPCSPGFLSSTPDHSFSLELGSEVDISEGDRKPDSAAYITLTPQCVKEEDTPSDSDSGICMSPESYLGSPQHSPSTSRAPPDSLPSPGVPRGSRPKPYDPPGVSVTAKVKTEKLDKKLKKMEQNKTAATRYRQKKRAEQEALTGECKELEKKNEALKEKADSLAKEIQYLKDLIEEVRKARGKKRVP", "experiment": "proximity ligation; Duolink In situ Red PLA on fixed, permeabilised primary rat cortical neurons with rabbit anti-CREB3L2 and mouse anti-ATF4; puncta counted per area of soma or in nuclei; neurons treated with vehicle, Aβ42 (8 h), thapsigargin, bortezomib (5 h), nelfinavir or BtdCPU"}, "[2]": {"molecular_target": "T1, activating transcription factor 4 (ATF4) (rat (endogenous in primary cortical neurons))", "experiment": "co-IP; anti-ATF4 (D4B8) or control IgG cross-linked to protein A magnetic beads, mixed with 500 µg RIPA lysate of cortical neurons overnight at 4 °C; washed with RIPA; eluted with 0.2 M glycine pH 2.5; CREB3L2 detected by immunoblot; neurons treated with DMSO, thapsigargin or bortezomib for 5 h"}},
  "note": "Results are given in words; binding and its absence hold for the method and conditions named. In cells and extracts the contact can be indirect. Some binding calls cover weakened binding; strength is not graded here.",
  "data": [
    {"binder": "cyclic AMP-responsive element-binding protein 3-like protein 2 (CREB3L2) (protein, UniProt Q6QDP7 1-521) MEVLESGEQSVLQWDRKLSELSEPGETEALMYHTHFSELLDEFSQNVLGQLLNDPFLSEKSVSMEVEPSPTSPAPLIQAEHSYSLSEEPRAQSPFTHVAASDGFNDEEVESEKWYLSTEFPSATIKTEPITEEQPPGLVPSVTLTITAISTPFEKEESPLDMSAGGDSSCQTLIPKIKLEPHEVDQFLNFSPKEASVDQLHLPPTPPSSHSSDSEGSLSPNPRLHPFSLSQAHSPGRAMPRGPSALSTSPLLTAPHKLQGSGPLVLTEEEKRTLIAEGYPIPTKLPLTKSEEKALKKIRRKIKNKISAQESRRKKKEYMDSLEKKVESCSTENLELRKKVEVLENTNRTLLQQLQKLQTLVMGKVSRTCKLAGTQTGTCLMVVVLCFAVAFGSLFQGYGLYPSATKMALPSQHPLSEPYTASVVRSRNLLIYEEHSSLEESSSPASAGELGGWDRGSSLLRASSGLEALPEVDLPHFIISKETSLEKSVLLELQQHLVSSKLEGNETLKVVELERRVNATF", "values": [
      {"measurement": "binding", "setting": "[1]", "result": "binds"},
      {"measurement": "binding", "setting": "[2]", "result": "binds"}
    ]}
  ]
}
